Library screen at single concentrations

Chains of the proteins cited; added tags and fusions are not shown. Residues count along the entry.
UniProt A4I591, 1-473: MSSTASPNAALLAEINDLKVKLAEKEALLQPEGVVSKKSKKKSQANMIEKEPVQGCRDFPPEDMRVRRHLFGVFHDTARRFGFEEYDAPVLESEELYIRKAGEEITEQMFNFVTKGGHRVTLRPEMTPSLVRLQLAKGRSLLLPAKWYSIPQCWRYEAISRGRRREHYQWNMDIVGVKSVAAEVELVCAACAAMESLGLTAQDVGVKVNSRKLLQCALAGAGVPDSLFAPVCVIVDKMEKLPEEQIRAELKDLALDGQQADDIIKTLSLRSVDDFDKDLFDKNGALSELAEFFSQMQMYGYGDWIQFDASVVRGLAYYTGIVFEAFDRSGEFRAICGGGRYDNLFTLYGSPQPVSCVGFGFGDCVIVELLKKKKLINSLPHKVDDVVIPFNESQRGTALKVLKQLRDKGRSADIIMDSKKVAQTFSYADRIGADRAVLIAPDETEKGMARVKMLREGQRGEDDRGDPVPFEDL

The filed quantity is “Percent Effect” (%). The record does not define 0% and 100%; most values in the screen are far below 50% and negative numbers occur (in some assays of this library far below -100). This is an unselected part of the compounds tested.

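Enzyme assay of histidyl-tRNA synthetase; the read-out is not stated. Target: Histidine-tRNA ligase, Leishmania infantum (UniProt A4I591). Compounds at 30 µM. The record gives no direction; compounds that gave an IC50 in retests scored well above the rest, so higher reads as stronger inhibition. The assay is labelled LdHisRS but filed under L. infantum. Size under these conditions: about 69,000 compounds, about 410 of them at 50% or above in at least one test.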

structure	effect
CCOCC(=O)N1CC[C@H]2OCC[C@@]2(COc2ncccc2F)C1	22.37
O=C(c1ccncc1)N(CCO)Cc1cc(Br)ccc1F	18.68
CC1(CO)COC(Cc2ccc(Cl)cc2)=N1 (centres unmarked)	-5.618
Cc1ccc(N2CCCN(C(=O)CCCn3ccnc3C)CC2)nn1	4.145
CC(O)CCN(C)C(=O)Nc1cc(F)cc(Br)c1 (centres unmarked)	12.5
Cn1cccc1C(=O)N1CC[C@@H]2[C@@H]1CC(=O)N2CCN1CCOCC1	12.9
COc1cccc(-n2nnc(C(=O)N3CCN(C(C)=O)CC3)c2C)c1	10.19
Cc1oc(C(=O)Nc2cccc(Cl)c2C)cc1S(N)(=O)=O	15.96
Cc1cc(N(C)C)nc(C2(C)CCCN2C(=O)c2cncnc2C)n1 (centres unmarked)	10
FC(F)(F)CCN(Cc1ccon1)C1CCCC1	6.25
CC(O)CN1CCC(CN(C)Cc2cccc(C#N)c2)CC1 (centres unmarked)	9.859
CC(C)Oc1ccc2c(NC(=O)CNC(N)=O)nn(CC(F)(F)F)c2c1	12.99
CCC(CC)(CNC(=O)NC1CCCC1(C)C)S(C)(=O)=O (centres unmarked)	12.09
COc1ccc(Cl)cc1NC(=O)N(C)CC(O)COCCOC(C)C (centres unmarked)	4.712
CC(Cn1cccn1)n1cnc2cccc(Cl)c2c1=O (centres unmarked)	14.75
Cc1noc(C)c1CS(=O)(=O)CC(=O)N1c2ccccc2CC1C (centres unmarked)	13.7
CCC(=O)N1CC[C@H]2[C@H](C[C@@H](CN3CCCC3)N2c2nccs2)C1	7.692
Cc1cc(NC(=O)c2ccc(N3CCOCC3)cc2)[nH]n1	5.263
O=C(CN1CCNC1=O)NCc1ccc2sccc2c1	8.511
Cc1cccc(C(=O)N2CC[C@@H]3[C@H]2CCC(=O)N3c2ccccc2)n1	-1
Cc1ccsc1C(=O)N1C[C@@H]2CN(Cc3ccoc3)CCO[C@@H]2C1	13.53
Cc1nc(CNC(=O)NC2CCN(c3ncccc3Cl)C2)no1 (centres unmarked)	4.301
COc1c(C)cnc(CN2CCn3c(nnc3C3CC3)C2)c1C	17.7
CN(C)CCO[C@H]1CN(C(=O)c2cccs2)[C@@H]2COC[C@H]12	10.91
CCSC(C)c1nc(-c2ccc(C)nn2)no1 (centres unmarked)	6.25
CCOCc1nc2c(c(N3CCCn4nc(C)cc4C3)n1)CCNCC2	2.041
CC(=O)c1cn(CCC(=O)N[C@H](C(=O)O)C(C)C)c2ccccc12	13.59
Cn1c(Nc2ccc(F)cc2)c(C#N)c(=O)n(C)c1=O	14.75
NC(=O)C1CCCN(c2ccc(CNC(=O)c3cc[nH]n3)cc2)C1 (centres unmarked)	0.8696
CC(C)N1Cc2cccc(NCC(=O)N(C)C)c2C1	6.806
CC(C)(C)c1nccc(N2CCC(OCCN3CCCCC3)C2)n1 (centres unmarked)	12.82
Cc1cc(C)n(C2CCCN(C(=O)CCOc3ccccc3F)C2)n1 (centres unmarked)	8.475
Cc1cccn2c(=O)cc(CN3CCCC3Cn3cncn3)nc12 (centres unmarked)	26.23
CC1CN(Cc2cccnc2)CCN1c1ccc2nncn2n1 (centres unmarked)	3.478
COCCN1CCC2(CC1)CC(COC)N(c1ncccn1)C2 (centres unmarked)	12.26
COCCNC(=O)NC1(c2nc(C)no2)CCCCC1	13.91
N#Cc1ccc(CN2CCN(C(=O)c3cc(C4CC4)[nH]n3)CC2)cc1	21.54
FC(F)(F)Oc1cccc(CNCc2ccc(-n3cncn3)nc2)c1	1.77
COc1ncccc1CN1C[C@H]2CCN(C(C)C)C[C@H]2C1	5.769
Cn1cc(C2=NOC(C(=O)NC3(c4ccccc4F)CCCC3)C2)cn1 (centres unmarked)	1.439
CCc1nnc2ccc(NCC3(N4CCCCC4)CCOCC3)nn12	11.76
CCc1cccc(N2CCC(NC(=O)c3ccoc3C)CC2)c1	16.52
O=C(NCCNc1ncccn1)c1cnc(-c2ccccc2)nc1	18.03
CCOc1ccc(C(F)(F)F)cc1NC(=O)N1CCC(C(N)=O)CC1	15.04
O=C(NCc1cc[nH]n1)NCC(c1ccco1)N1CCCC1 (centres unmarked)	20.75
COc1ccccc1OCCNC(=O)CN1CCc2cncnc2C1	20.18
Cc1noc(C)c1C(=O)N1CCCC(c2nccn2Cc2cscn2)C1 (centres unmarked)	13.6
CC(=O)N1CCN(c2ccccc2CNc2ccc(C)cn2)CC1	16.44
CCCS(=O)(=O)N1CCn2cc(CNc3ccccn3)nc2C1	30.56
CC1(c2ncc(CN3CCN(c4ncccn4)CC3)cn2)CCCCO1 (centres unmarked)	9.859
CCOCC(O)CN1CCN(C(=O)c2cc(C)ccc2OC)CC1 (centres unmarked)	17.31
Cc1[nH]ccc1C(=O)N1CCN(C)C2(CCC(=O)N(C)CC2)C1 (centres unmarked)	-2.797
Cn1cc(CN2C[C@@H]3COC[C@]3(C(=O)NCCc3ccccc3)C2)cn1	2.778
CCn1nccc1CNC(=O)C1CCCC1	6.604
c1cnc2[nH]c(C3CCCNC3)c(CN3CCCOCC3)c2c1 (centres unmarked)	7.292
CN(Cc1cnn(C)c1)C(=O)C1CCCN1Cc1ccccn1 (centres unmarked)	12.5
Cc1ccc(NC(=O)N2CCN(Cc3noc(C4CC4)n3)CC2)cc1	-2.703
O=C(c1cccc2c1OCO2)N1CCCCC1Cn1cccn1 (centres unmarked)	13.22
CC(C)N1CCC2(CC1)CN(C)C(=O)C[C@H]2C(F)(F)F	8.547
CNC(=O)c1cnc(/C=C/c2cc(OC)c3c(c2)OCCO3)s1	16.96
Cc1nc(COC(=O)c2cccc3c2OCCO3)cs1	12.94
CCc1cc(N(C)Cc2noc(C(C)C)n2)nc(N2CCOCC2)n1	21.67
COCC(=O)N1CCC2(CCCN(Cc3cnn(C)c3)C2)C1 (centres unmarked)	8.824
c1ccc(OCCCN2CCN(c3ccc4nncn4n3)CC2)cc1	30.14
Cc1nc(CN2CCCC(NCc3nc4ccccc4s3)C2)no1 (centres unmarked)	6.957
Cc1nc(O)c2c(n1)CCN(Cc1cc(C)sc1C)CC2	5.634
O=C(NCC1CCN(c2ccncc2)CC1)C(O)c1ccccc1 (centres unmarked)	17.5
CC(CN1CCOCC1)OC(=O)c1ccccc1Cl (centres unmarked)	10
CCN1CC(C(=O)N2CCC(Oc3ccccc3C)CC2)CC1=O (centres unmarked)	7.619
COc1ccc(CNC(C)c2cccc(Br)c2)c(OC)c1OC (centres unmarked)	13.39
COc1cc(C(C)=O)ccc1OCC(=O)N(Cc1ccsc1)C1CC1	14.52
C[C@@H]1CN(C(=O)C2(Cn3cccn3)CC2)CC[C@@]1(O)C1CCOCC1	15.29
COc1ccc(C(=O)NC2CC2)c(OC)c1	16.13

5 of the entries, repeated:

structure	effect
O=C(c1ccncc1)N(CCO)Cc1cc(Br)ccc1F	18.68
CC(=O)N1CCN(c2ccccc2CNc2ccc(C)cn2)CC1	16.44
CCCS(=O)(=O)N1CCn2cc(CNc3ccccn3)nc2C1	30.56
CCc1nnc2ccc(NCC3(N4CCCCC4)CCOCC3)nn12	11.76
COCCN1CCC2(CC1)CC(COC)N(c1ncccn1)C2 (centres unmarked)	12.26

Measurements from “University of Dundee, Small-Polar-MMV Screening Library” (2021), ChEMBL document CHEMBL3988442.